According to the supplement of paper PMC10849652:
The list shows a part of the results.

Amino acid sequences for entries named in this document (tags omitted). A change or cut given only in a name is not applied to a line headed by its entry.
UniProt P47756, whole entry, looked up: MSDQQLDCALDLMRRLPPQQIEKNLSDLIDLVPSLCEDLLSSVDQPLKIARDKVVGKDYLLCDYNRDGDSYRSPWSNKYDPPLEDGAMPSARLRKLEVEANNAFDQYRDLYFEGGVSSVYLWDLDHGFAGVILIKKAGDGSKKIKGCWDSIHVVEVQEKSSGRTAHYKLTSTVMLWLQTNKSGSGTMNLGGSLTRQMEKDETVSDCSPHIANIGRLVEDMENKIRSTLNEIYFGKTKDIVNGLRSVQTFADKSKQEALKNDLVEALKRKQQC
UniProt Q9P1Z2: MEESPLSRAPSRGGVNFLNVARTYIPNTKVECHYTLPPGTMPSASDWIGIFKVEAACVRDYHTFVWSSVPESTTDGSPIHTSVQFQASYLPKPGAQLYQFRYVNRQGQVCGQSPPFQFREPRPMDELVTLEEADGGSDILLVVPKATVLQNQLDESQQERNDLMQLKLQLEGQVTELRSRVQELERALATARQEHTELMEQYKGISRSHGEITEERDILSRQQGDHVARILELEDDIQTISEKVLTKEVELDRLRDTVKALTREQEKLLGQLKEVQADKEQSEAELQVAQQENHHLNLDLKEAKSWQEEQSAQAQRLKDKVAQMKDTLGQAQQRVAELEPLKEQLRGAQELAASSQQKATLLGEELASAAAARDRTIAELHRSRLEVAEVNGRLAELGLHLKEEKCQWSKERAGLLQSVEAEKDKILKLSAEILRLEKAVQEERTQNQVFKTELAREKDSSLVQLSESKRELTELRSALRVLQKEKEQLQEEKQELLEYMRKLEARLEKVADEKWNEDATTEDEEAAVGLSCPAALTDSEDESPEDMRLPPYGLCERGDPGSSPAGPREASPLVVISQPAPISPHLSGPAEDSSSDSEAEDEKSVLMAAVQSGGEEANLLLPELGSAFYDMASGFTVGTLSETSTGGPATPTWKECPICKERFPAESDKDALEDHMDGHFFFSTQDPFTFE
UniProt Q07021: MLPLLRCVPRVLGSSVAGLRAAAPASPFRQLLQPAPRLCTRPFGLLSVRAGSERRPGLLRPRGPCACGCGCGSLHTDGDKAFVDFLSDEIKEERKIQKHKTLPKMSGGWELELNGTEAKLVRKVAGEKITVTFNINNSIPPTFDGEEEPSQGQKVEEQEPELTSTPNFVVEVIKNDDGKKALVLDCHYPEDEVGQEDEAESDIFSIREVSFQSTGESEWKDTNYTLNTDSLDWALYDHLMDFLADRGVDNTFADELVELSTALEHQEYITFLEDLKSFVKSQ
UniProt Q49AR2: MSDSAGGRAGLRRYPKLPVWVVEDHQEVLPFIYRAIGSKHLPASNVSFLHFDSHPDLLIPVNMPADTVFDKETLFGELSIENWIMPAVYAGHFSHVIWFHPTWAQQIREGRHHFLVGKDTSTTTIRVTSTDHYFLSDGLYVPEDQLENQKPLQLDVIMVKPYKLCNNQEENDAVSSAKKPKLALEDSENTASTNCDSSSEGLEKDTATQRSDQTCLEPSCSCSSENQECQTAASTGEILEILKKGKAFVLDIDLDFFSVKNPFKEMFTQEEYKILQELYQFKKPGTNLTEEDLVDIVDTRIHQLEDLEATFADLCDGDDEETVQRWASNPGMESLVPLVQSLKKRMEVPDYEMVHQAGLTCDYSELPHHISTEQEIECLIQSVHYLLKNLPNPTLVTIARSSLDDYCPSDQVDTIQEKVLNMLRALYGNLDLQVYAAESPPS
UniProt Q8IXQ3: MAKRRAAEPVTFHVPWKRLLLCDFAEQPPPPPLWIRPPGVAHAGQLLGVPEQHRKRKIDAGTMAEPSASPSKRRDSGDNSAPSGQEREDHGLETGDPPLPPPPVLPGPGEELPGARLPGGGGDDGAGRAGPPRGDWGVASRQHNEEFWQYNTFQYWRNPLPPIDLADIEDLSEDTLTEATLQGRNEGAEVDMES
UniProt Q96GV9: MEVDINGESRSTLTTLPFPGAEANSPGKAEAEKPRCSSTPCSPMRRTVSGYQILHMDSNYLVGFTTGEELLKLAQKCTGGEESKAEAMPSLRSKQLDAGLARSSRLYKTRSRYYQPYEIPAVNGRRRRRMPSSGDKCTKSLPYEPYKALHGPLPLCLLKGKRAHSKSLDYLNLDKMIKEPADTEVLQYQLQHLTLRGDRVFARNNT
UniProt Q9Y6W3: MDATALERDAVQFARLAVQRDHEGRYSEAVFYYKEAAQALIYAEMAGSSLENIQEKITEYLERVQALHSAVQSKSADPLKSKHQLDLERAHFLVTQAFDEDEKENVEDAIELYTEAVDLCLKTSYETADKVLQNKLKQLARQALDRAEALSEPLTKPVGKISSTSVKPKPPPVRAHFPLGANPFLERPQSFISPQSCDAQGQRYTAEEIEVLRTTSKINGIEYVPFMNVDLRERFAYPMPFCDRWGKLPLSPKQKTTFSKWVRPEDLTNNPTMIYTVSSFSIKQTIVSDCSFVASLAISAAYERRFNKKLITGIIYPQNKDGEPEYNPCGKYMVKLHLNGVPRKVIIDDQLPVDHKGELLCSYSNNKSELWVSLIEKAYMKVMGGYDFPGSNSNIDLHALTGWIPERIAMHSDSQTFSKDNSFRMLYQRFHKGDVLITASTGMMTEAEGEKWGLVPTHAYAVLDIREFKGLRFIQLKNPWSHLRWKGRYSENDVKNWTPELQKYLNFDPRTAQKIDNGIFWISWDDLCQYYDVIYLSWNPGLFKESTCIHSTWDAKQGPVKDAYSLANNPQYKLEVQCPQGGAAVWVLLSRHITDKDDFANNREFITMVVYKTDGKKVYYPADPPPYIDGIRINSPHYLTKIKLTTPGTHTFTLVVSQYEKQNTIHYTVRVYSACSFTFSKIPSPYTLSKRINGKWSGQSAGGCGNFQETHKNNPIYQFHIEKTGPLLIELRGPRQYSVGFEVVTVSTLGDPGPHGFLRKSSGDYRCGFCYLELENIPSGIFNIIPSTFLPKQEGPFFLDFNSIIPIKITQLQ
UniProt Q6UWU4: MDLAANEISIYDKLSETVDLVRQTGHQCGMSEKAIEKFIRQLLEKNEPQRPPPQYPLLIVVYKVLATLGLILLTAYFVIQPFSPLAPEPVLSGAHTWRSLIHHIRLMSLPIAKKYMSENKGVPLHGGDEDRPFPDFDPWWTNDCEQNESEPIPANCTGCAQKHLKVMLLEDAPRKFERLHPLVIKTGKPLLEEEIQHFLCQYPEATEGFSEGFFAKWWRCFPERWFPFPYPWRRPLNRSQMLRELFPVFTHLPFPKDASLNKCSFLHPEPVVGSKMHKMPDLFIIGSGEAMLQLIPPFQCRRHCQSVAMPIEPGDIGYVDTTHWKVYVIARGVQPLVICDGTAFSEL
UniProt Q9H425: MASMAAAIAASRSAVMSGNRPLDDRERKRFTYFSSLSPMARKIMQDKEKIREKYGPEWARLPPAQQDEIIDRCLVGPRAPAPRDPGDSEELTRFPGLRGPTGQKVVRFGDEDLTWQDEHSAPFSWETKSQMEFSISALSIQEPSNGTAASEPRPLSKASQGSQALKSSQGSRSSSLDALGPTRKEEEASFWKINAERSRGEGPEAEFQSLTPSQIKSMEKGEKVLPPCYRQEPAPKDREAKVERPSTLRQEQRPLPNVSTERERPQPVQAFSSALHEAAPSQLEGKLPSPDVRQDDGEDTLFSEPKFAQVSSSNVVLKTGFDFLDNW
UniProt Q14012: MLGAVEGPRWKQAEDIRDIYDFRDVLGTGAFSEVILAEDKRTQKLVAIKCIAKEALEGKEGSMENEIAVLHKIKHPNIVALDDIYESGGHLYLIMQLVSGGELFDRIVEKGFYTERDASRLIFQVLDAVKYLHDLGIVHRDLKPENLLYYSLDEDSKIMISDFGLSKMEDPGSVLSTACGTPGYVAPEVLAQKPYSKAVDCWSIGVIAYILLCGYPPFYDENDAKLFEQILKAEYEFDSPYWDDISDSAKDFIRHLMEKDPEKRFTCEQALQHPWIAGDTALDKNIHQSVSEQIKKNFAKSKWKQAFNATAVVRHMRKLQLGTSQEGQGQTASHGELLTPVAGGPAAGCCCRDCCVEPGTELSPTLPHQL
UniProt Q8N5I9: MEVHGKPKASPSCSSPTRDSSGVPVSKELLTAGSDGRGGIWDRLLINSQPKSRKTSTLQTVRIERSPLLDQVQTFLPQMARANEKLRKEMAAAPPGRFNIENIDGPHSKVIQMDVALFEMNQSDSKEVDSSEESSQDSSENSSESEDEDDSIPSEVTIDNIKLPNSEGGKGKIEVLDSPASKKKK
UniProt Q9Y376: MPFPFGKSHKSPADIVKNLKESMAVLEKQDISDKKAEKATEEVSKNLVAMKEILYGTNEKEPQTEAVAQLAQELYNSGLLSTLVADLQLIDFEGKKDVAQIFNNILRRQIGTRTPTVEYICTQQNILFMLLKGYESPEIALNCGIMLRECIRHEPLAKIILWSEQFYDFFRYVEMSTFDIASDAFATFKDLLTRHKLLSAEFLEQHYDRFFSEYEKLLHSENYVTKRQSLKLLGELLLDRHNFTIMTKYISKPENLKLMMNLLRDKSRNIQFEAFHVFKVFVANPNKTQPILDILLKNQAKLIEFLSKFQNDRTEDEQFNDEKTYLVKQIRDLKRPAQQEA
UniProt O95873: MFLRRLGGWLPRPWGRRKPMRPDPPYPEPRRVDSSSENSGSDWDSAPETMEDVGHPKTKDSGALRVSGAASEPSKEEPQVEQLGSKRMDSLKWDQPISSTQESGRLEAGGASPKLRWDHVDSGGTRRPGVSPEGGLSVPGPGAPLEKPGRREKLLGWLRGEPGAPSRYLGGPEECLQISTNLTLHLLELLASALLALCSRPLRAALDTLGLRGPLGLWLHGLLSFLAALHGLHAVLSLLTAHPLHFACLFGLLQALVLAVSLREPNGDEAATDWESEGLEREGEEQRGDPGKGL
UniProt O75155: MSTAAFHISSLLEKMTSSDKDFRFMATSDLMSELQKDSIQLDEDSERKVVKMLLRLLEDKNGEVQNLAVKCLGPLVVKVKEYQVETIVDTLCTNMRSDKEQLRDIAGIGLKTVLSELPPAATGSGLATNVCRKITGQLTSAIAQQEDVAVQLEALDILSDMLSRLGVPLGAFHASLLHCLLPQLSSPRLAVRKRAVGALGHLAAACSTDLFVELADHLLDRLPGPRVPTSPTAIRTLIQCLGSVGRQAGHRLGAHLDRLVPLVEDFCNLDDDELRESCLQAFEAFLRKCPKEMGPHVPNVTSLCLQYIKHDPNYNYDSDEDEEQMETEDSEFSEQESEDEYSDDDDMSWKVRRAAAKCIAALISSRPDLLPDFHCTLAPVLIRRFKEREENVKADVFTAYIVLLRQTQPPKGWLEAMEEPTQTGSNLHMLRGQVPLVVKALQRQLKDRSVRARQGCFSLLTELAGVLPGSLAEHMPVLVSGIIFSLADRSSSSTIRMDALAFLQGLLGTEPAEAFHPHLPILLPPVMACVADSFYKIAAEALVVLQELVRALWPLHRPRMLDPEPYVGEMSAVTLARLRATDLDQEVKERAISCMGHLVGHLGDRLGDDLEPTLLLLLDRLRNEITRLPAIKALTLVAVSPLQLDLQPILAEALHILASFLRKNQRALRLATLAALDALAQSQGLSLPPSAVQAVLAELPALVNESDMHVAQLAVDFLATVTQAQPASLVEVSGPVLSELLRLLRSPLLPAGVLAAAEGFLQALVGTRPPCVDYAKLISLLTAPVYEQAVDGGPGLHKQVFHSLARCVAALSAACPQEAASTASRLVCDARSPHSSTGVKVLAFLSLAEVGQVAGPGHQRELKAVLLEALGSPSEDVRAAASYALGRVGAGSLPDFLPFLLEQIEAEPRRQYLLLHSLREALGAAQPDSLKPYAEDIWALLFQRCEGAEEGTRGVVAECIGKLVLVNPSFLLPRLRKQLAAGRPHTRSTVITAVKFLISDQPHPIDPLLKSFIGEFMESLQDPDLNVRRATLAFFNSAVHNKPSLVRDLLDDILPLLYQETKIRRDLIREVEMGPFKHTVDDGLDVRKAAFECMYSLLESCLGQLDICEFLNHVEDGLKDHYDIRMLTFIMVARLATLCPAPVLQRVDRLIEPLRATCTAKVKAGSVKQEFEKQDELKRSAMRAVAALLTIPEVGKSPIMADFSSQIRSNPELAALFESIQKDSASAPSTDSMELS
UniProt Q9HAS0: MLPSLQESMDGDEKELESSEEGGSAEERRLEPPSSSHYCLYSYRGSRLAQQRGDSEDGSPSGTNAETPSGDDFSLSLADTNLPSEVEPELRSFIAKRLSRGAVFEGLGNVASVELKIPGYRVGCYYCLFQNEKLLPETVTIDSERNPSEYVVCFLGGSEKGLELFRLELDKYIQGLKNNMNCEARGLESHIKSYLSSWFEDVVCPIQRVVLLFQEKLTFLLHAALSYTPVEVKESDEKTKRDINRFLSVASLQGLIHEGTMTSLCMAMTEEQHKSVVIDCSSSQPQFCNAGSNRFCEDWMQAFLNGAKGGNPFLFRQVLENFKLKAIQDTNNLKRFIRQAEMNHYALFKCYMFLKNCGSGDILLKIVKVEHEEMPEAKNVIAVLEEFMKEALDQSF

What was measured:
Test in all cases: log2 fold change, soluble protein after heating vs DMSO (PISA); higher = thermal stabilisation; K562 lysate, 10 uM; active = over 0.2 and 3.5 SD of the protein, either way, in both replicates (recomputed)
[1] = compound: NCC(=O)Nc1ccc(-n2nc(C(F)(F)F)cc2-c2ccc3c(ccc4ccccc43)c2)cc1
Method in brief: (§1)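 A 30 min treatment with 10 μM compound was applied to crude K562 extract at 1 mg/mL protein in PBS pH 7.4 with 1 mM MgCl2. Heating for 3 min spanned 48°C-58°C, after which aliquots were pooled, adjusted to 0.5% NP-40 at 4°C and spun at 21,000xg for 90 min. TMTpro 16plex LC-MS/MS of the supernatant, with channel sums equalised, gave values recorded as log-two fold change in thermal stability against solvent controls, from duplicates.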

vorinostat = compound: O=C(CCCCCCC(=O)Nc1ccccc1)NO [vorinostat]
Method in brief: as §1

silmitasertib = compound: O=C(O)c1ccc2c(c1)nc(Nc1cccc(Cl)c1)c1ccncc12 [silmitasertib]
Method in brief: as §1

[2] = compound: O=C1NC(=O)C(c2cnc3ccccn23)=C1c1cn2c3c(cc(F)cc13)CN(C(=O)N1CCCCC1)CC2
Method in brief: as §1

entospletinib = compound: c1cn2cc(-c3ccc4cn[nH]c4c3)nc(Nc3ccc(N4CCOCC4)cc3)c2n1 [entospletinib]
Method in brief: as §1

Measured: log2 fold change

CAPZB isoform 2 (UniProt P47756)
inactive: [1] 0.012 | vorinostat 0.02 | silmitasertib 0.001 | [2] -0.018 | entospletinib 0.01

C12orf29 (UniProt Q8N999)
inactive: [1] 0.029 | vorinostat -0.218 | silmitasertib 0.026 | [2] 0.003 | entospletinib -0.041

CAMK2G isoform 8 (UniProt Q13555)
inactive: [1] -0.044 | vorinostat -0.208 | silmitasertib 0.087 | [2] 0.084 | entospletinib 0.004

CALCOCO1 (UniProt Q9P1Z2)
inactive: [1] 0.071 | vorinostat -0.031 | silmitasertib 0.056 | [2] -0.001 | entospletinib 0.015

C1QBP (UniProt Q07021)
inactive: [1] 0.014 | vorinostat 0.087 | silmitasertib -0.002 | [2] 0.001 | entospletinib 0.044

CAPZA1 (UniProt P52907)
inactive: [1] 0.03 | vorinostat 0.113 | silmitasertib -0.071 | [2] -0.012 | entospletinib -0.015

C5orf22 (UniProt Q49AR2)
inactive: [1] 0.025 | vorinostat 0.079 | silmitasertib 0.025 | [2] -0.035 | entospletinib 0.004

CA1 (UniProt P00915)
inactive: [1] 0.006 | vorinostat 0.192 | silmitasertib 0.004 | [2] -0.03 | entospletinib -0.021

CAND1 (UniProt Q86VP6)
inactive: [1] 0.015 | vorinostat 0.105 | silmitasertib -0.009 | [2] -0.003 | entospletinib 0.003

C9orf40 (UniProt Q8IXQ3)
inactive: [1] -0.02 | vorinostat 0.009 | silmitasertib 0.027 | [2] -0.049 | entospletinib 0

C5orf30 (UniProt Q96GV9)
inactive: [1] 0.128 | vorinostat 0.104 | silmitasertib 0.045 | [2] 0.102 | entospletinib -0.021

CAPN7 (UniProt Q9Y6W3)
inactive: [1] -0.049 | vorinostat -0.153 | silmitasertib 0.013 | [2] 0.022 | entospletinib 0.024

CABIN1 (UniProt Q9Y6J0)
inactive: [1] -0.027 | vorinostat -0.325 | silmitasertib 0.041 | entospletinib -0.033

C6orf89 isoform 2 (UniProt Q6UWU4)
inactive: [1] 0.03 | vorinostat 0.214 | silmitasertib -0.017 | [2] -0.045 | entospletinib -0.019

CAPNS1 (UniProt P04632)
inactive: [1] -0.08 | vorinostat 0.07 | silmitasertib -0.007 | [2] -0.039 | entospletinib 0.033

C1orf198 (UniProt Q9H425)
inactive: [1] 0.111 | vorinostat 0.042 | silmitasertib -0.048 | [2] -0.034 | entospletinib 0.048

CAMK1 (UniProt Q14012)
inactive: [1] -0.13 | vorinostat 0.027 | silmitasertib -0.059 | [2] 0.062 | entospletinib 0.115

CAPN2 (UniProt P17655)
inactive: [1] -0.019 | vorinostat 0.074 | silmitasertib 0.001 | [2] -0.007 | entospletinib 0.007

C12orf45 (UniProt Q8N5I9)
inactive: [1] 0.063 | vorinostat 0.012 | silmitasertib -0.059 | [2] -0.027 | entospletinib 0

C8orf82 (UniProt Q6P1X6)
inactive: [1] 0.008 | vorinostat -0.008 | silmitasertib -0.005 | [2] -0.022 | entospletinib -0.014

CAB39 (UniProt Q9Y376)
inactive: [1] -0.037 | vorinostat 0.113 | silmitasertib -0.006 | [2] -0.013 | entospletinib 0.005

C6orf47 (UniProt O95873)
inactive: [1] 0.006 | vorinostat 0.159 | silmitasertib 0.018 | [2] -0.022 | entospletinib -0.098

CAND2 (UniProt O75155)
inactive: [1] 0.003 | vorinostat -0.033 | silmitasertib -0.007 | [2] -0.002 | entospletinib -0.032

C17orf75 (UniProt Q9HAS0)
inactive: [1] -0.014 | vorinostat -0.118 | silmitasertib 0.02 | [2] 0.015 | entospletinib -0.056

C9orf64 (UniProt Q5T6V5)
inactive: [1] -0.019 | vorinostat -0.088 | silmitasertib -0.005 | [2] 0.016 | entospletinib 0.003

CAPZA2 (UniProt P47755)
inactive: [1] -0.014 | vorinostat 0.063 | silmitasertib 0.019 | [2] -0.011 | entospletinib -0.028

Copied from the entries so far (7 entries):
C8orf82 (UniProt Q6P1X6)
inactive: [1] 0.008 | vorinostat -0.008 | silmitasertib -0.005 | [2] -0.022 | entospletinib -0.014

CAB39 (UniProt Q9Y376)
inactive: [1] -0.037 | vorinostat 0.113 | silmitasertib -0.006 | [2] -0.013 | entospletinib 0.005

C6orf47 (UniProt O95873)
inactive: [1] 0.006 | vorinostat 0.159 | silmitasertib 0.018 | [2] -0.022 | entospletinib -0.098

CAND2 (UniProt O75155)
inactive: [1] 0.003 | vorinostat -0.033 | silmitasertib -0.007 | [2] -0.002 | entospletinib -0.032

C17orf75 (UniProt Q9HAS0)
inactive: [1] -0.014 | vorinostat -0.118 | silmitasertib 0.02 | [2] 0.015 | entospletinib -0.056

C9orf64 (UniProt Q5T6V5)
inactive: [1] -0.019 | vorinostat -0.088 | silmitasertib -0.005 | [2] 0.016 | entospletinib 0.003

CAPZA2 (UniProt P47755)
inactive: [1] -0.014 | vorinostat 0.063 | silmitasertib 0.019 | [2] -0.011 | entospletinib -0.028
